From PMC5661651
No constants are given. Whether binding was seen depends on the method and setting. Binding seen in cells or lysates may run through a third protein. Some binding calls cover weakened binding; strength is not graded here.

Chains of the proteins cited; added tags and fusions are not shown.
UniProt P25911: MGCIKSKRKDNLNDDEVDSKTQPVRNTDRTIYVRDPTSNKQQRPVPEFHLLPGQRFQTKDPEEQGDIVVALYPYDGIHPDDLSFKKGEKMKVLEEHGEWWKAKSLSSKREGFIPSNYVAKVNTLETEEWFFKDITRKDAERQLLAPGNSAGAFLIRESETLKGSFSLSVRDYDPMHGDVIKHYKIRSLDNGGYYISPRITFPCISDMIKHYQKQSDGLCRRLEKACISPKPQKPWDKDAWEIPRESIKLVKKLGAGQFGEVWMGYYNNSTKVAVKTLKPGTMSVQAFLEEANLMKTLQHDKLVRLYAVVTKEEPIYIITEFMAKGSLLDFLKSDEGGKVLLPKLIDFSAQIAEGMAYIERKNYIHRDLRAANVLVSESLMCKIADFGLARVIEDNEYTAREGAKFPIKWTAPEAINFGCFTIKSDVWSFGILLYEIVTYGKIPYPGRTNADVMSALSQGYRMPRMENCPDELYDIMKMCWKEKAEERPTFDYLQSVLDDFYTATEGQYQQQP
UniProt P26040: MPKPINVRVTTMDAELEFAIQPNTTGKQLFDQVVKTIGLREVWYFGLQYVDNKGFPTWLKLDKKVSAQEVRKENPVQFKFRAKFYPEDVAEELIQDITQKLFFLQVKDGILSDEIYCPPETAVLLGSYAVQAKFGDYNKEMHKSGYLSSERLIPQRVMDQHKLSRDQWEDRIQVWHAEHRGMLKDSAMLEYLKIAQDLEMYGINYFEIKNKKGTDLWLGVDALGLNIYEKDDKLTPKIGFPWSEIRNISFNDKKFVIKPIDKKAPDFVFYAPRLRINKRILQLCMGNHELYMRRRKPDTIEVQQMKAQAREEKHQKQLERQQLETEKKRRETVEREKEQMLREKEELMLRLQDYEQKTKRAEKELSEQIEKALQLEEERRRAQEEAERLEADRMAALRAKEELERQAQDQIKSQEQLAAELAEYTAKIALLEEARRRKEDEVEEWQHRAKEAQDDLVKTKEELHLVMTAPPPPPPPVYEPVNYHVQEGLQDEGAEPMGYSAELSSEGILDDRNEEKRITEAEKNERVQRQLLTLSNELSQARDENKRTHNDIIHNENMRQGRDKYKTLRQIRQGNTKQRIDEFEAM

Target: Lyn (mouse (endogenous in MH-S)) (UniProt P25911)
Assay: co-IP; siNC-treated (WT) MH-S cells infected with PAO1 (MOI 20:1, 30 min); whole-cell lysates mixed with anti-Lyn or anti-IL-6R antibody coupled to protein A/G agarose beads; immunoblot

binding: binds
Substance: Ezrin (from UniProt P26040 1-586)
